PubChem BioAssay AID743448 | Peter MacCallum Cancer Centre – 2014
Shown is a random part of the 106 reagents, in one setting of the screen. 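Calls are per line and drug panel including etoposide, not vorinostat-specific; gene picks needed hits in two or more extra lines with vorinostat versus etoposide.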 Entries without a mark were called inactive.

Purpose: 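Third-round triage of 106 confirmed candidates in four colon lines under two drugs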 (follow-up of hits)
System: four human colon cancer cell lines: HCT116-VR (vorinostat-resistant HCT116 derivative), SW480, SW620 and LIM1215
Reagents: siRNA pool against human genes, 40 nM siRNA pool
Duration: drug added two days after transfection, read one day later
Challenge: vorinostat 2.5 µM on one half of each plate, etoposide 5 µM on the other half
Cell line and drug panel: vorinostat-resistant HCT116 cells with etoposide
Detection: 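Caspase luminescence and viability fluorescence, each expressed relative to mock transfection and also as robust z-scores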
Direction: caspase ratio to mock: higher = more caspase activity than mock; viability ratio to mock: higher = more live cells than mock; caspase robust z-score: higher = more caspase activity, more apoptosis; viability robust z-score: higher = more live cells
Rule for the call: 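Hit means caspase ratio to mock at least 1.6, or viability ratio to mock at most 0.75; wells with strong death in the absence of drug get no call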
Meaning of the calls: active = caspase or viability hit in this panel; inactive = no change, or unhealthy well

gene | caspase ratio to mock | viability ratio to mock | caspase robust z-score | viability robust z-score
PSMD4 | 2.2 (active) | 1.04 | 0.62 | 0.66
RWDD2A | 1.68 (active) | 1.12 | -0.08 | 1.14
VAX1 | 1.29 | 0.99 | -0.57 | 0.32
KIR2DL1 | 1.29 | 1.21 | -0.57 | 1.65
BEGAIN | 1.23 | 0.94 | -0.64 | 0.06
OR2W5 | 1.72 (active) | 0.98 | -0.01 | 0.26
POLR2G | 3.84 (active) | 0.82 | 2.82 | -0.68
LAD1 | 1.84 (active) | 1.09 | 0.14 | 0.98
PSMA7 | 3.35 (active) | 0.57 | 2.19 | -2.16
VPS4A | 2.59 (active) | 0.92 | 1.17 | -0.11
PSMD13 | 1.23 | 0.96 | -0.66 | 0.2
ANKRD13C-DT | 2.15 (active) | 0.82 | 0.56 | -0.58
RGS18 | 1.29 | 1.25 | -0.58 | 1.92
TFAP2D | 1.63 (active) | 1.21 | -0.14 | 1.66
GPER1 | 2.62 (active) | 0.9 | 1.19 | -0.16
POLR2J | 3.52 (active) | 0.92 | 2.34 | -0.11
NUP54 | 1.66 (active) | 0.76 | -0.1 | -0.99
POLR2K | 2.65 (active) | 0.78 | 1.2 | -0.94
DPPA5 | 1.6 (active) | 0.99 | -0.13 | 0.38
EIF4A1 | 0.7 | 0.76 | -1.35 | -0.98
MED28 | 3.72 (active) | 1 | 2.6 | 0.44
NPC1L1 | 1.14 | 1.02 | -0.76 | 0.54
SH3GLB2 | 1.16 | 1.07 | -0.76 | 0.84
TGM5 | 1.16 | 1.01 | -0.76 | 0.44
AQR | 2.88 (active) | 0.52 | 1.48 | -2.48
LCE2A | 1.81 (active) | 1.08 | 0.1 | 0.94
POLR2L | 1.91 (active) | 0.74 | 0.22 | -1.14
LBHD1 | 1.28 | 1.06 | -0.6 | 0.76
POLR2D | 3.34 (active) | 0.83 | 2.16 | -0.57
CDK10 | 1.19 | 1.01 | -0.7 | 0.52
EIF3I | 0.84 (active) | 0.68 | -1.16 | -1.55
PRRT3 | 1.44 | 1.06 | -0.36 | 0.82
UTP3 | 1.4 | 0.92 | -0.44 | -0.04
C22orf15 | 1.11 | 1 | -0.8 | 0.44
MSANTD1 | 2.21 (active) | 0.82 | 0.61 | -0.6
RBM42 | 2.03 (active) | 0.7 | 0.42 | -1.44
OSBPL6 | 1.49 | 1.06 | -0.3 | 0.78
NPEPPS | 0.97 (active) | 0.56 | -0.99 | -2.24
FLII | 2.23 (active) | 1.02 | 0.66 | 0.5
GATA1 | 1.47 | 1.06 | -0.33 | 0.84
EIF3L | 1.5 | 0.96 | -0.29 | 0.12
NUP93 | 2.25 (active) | 0.66 | 0.68 | -1.66
MAGOH | 2.48 (active) | 0.63 | 1.02 | -1.83
ZNF441 | 1.02 | 0.97 | -0.9 | 0.24
AP5S1 | 1.04 | 0.77 | -0.9 | -0.98
AMDHD2 | 1.91 (active) | 0.92 | 0.22 | -0.08
PUF60 | 4.21 (active) | 0.97 | 3.29 | 0.22
RERE | 1.64 (active) | 1.17 | -0.1 | 1.42
SCRT2 | 1.75 (active) | 0.84 | 0.03 | -0.55
FANCA | 2.16 (active) | 0.91 | 0.55 | -0.15

Targets listed so far whose target name starts with G or g:
gene | caspase ratio to mock | viability ratio to mock | caspase robust z-score | viability robust z-score
GPER1 | 2.62 (active) | 0.9 | 1.19 | -0.16
GATA1 | 1.47 | 1.06 | -0.33 | 0.84
